Measured values taken from article PMC5501830.
These are yes or no findings as the source states them, for the method shown. In cells and extracts the contact can be indirect. These calls come from enrichment with a bait or labelling near it, and not all partners need be listed.

By UniProt entry, the sequences of proteins in these tests, tags left out. Residues count along the entry.
UniProt Q9BXW9: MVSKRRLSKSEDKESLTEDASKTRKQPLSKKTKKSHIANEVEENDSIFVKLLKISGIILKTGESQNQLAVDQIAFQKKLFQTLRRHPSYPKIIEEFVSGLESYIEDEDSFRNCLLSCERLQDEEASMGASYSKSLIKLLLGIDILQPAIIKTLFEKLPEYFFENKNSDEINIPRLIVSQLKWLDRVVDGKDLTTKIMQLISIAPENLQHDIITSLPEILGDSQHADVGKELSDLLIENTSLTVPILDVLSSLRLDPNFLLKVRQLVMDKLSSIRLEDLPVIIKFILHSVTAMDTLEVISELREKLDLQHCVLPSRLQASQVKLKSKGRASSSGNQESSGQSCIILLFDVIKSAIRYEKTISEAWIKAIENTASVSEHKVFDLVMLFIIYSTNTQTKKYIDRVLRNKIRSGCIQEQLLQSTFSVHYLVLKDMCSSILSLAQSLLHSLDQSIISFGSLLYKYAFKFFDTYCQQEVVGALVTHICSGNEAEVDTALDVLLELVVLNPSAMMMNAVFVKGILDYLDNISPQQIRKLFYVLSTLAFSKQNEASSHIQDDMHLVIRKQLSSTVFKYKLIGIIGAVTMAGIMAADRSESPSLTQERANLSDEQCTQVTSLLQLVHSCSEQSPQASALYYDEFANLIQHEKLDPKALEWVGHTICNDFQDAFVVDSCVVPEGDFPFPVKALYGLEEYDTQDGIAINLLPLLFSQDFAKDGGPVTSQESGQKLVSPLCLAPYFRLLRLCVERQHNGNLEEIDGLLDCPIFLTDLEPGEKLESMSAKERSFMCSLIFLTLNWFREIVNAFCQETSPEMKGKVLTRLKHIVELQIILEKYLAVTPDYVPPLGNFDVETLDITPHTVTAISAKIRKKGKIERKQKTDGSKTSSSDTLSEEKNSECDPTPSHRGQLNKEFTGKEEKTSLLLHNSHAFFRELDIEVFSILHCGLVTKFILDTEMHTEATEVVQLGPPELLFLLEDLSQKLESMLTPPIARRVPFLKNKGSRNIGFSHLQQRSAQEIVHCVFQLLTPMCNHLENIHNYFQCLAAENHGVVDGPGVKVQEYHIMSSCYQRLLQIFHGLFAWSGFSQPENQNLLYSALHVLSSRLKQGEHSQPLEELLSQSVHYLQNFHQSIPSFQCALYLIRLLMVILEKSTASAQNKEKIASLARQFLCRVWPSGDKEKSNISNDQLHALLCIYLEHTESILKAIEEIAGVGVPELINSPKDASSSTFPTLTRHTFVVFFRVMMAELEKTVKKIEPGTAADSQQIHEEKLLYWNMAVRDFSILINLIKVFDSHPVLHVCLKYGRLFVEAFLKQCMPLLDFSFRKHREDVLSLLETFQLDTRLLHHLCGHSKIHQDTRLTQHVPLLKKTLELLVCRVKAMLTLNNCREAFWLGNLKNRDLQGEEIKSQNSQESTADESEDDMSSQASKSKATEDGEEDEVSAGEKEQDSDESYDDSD
UniProt P25705, residues 44-553: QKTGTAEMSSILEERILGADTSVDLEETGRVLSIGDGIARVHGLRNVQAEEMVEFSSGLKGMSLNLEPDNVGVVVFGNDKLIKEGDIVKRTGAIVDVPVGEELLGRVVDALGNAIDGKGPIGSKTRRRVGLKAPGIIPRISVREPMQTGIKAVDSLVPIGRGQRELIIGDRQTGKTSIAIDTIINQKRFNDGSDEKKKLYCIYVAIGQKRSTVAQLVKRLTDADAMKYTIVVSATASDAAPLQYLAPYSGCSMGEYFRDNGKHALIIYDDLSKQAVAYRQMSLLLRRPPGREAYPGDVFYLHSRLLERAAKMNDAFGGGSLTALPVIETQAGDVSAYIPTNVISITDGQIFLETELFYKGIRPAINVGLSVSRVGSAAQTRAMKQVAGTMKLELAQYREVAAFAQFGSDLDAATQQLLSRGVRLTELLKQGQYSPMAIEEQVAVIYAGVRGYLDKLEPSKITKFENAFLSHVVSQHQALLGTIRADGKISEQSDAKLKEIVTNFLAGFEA

Biological target: Flag-wtFANCD2 (UniProt Q9BXW9)
Assay: affinity purification with mass spectrometry; Flag-IP eluates from HEK293T cells transfected with Flag vector, Flag-wtFANCD2 or Flag-mtFANCD2, resolved on an 8-16% gradient gel; the extra band cut out for MS/MS

- binding: binds
Substance: ATP5α (endogenous, 293T cells) (from UniProt P25705 44-553)
